Drawing on paper PMC10005780, this text covers binding for 1 substance.

Chains of the proteins cited; added tags and fusions are not shown.
UniProt P61026: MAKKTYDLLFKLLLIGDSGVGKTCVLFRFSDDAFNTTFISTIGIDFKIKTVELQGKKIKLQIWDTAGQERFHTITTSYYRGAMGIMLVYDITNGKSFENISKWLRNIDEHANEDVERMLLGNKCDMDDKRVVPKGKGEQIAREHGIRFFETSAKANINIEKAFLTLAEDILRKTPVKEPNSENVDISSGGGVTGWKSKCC
UniProt Q9NQT8: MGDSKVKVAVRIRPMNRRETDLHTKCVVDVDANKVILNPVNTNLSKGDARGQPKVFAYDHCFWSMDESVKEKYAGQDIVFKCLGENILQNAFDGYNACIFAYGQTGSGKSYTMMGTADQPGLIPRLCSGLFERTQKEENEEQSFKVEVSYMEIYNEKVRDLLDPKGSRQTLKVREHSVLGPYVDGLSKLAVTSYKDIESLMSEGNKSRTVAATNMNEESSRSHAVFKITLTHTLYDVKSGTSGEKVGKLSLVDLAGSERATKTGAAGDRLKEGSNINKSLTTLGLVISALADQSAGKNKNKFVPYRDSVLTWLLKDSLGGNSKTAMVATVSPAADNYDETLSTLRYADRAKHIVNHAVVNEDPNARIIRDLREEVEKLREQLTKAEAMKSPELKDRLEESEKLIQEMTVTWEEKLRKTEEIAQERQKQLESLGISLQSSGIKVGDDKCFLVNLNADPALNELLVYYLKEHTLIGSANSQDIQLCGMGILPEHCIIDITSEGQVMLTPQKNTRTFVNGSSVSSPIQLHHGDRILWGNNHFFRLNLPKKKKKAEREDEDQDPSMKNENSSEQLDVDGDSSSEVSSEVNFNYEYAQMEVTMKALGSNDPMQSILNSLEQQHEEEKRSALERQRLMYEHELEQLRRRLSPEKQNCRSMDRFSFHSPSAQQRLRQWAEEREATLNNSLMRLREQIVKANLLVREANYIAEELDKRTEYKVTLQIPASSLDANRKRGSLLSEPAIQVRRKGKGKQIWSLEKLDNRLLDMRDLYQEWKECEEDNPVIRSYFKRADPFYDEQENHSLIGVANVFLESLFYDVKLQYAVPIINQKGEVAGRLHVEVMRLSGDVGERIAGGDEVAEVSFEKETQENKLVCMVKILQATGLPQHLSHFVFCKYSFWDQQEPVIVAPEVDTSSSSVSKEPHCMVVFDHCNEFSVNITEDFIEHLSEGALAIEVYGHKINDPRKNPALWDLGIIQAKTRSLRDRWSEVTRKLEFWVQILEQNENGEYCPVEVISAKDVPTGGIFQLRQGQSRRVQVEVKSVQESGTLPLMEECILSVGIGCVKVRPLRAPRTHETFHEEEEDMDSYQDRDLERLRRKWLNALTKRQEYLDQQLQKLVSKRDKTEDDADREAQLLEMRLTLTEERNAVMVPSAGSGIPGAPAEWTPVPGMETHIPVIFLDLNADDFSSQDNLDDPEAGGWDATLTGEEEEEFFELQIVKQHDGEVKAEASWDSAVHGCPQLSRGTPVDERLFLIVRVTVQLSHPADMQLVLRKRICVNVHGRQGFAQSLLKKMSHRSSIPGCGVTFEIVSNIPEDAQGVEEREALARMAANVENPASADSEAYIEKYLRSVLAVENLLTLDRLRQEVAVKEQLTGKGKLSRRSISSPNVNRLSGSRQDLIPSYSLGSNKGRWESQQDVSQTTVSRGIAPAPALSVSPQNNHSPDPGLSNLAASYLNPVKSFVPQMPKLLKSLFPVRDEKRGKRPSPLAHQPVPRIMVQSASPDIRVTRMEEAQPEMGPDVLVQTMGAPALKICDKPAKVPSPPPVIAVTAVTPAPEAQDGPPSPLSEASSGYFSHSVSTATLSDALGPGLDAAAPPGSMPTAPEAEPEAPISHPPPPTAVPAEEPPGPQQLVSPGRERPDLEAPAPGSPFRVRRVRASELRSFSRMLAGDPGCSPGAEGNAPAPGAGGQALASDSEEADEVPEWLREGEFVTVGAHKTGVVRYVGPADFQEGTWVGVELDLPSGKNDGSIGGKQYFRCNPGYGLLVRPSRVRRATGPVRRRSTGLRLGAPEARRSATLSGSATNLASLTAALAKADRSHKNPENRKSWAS

These are yes or no findings as the source states them, for the method shown. In cells and extracts the contact can be indirect. Some entries that bind do so weakly or less than the wild type.

In this assay the target is HA-Rab10 WT (UniProt P61026). In words: co-IP; Lysates of N2A cells co-transfected with HA-Rab10 and GFP-KIF13B, starved 1 hr, stimulated or not with 50 ng/mL BDNF for 30 min; anti-HA magnetic beads overnight at 4°C; 25 mM MOPS pH 7.2, 100 mM KCl, 10 mM MgCl2, 0.5% IGEPAL CA-630; Western blot with anti-HA and anti-GFP; more KIF13B co-precipitated with BDNF (average twofold increase of the KIF13B/Rab10 ratio).

As to GFP-KIF13B (from UniProt Q9NQT8 1-1826), the binding result is listed as “binds”.
